Laboratory results published in paper doi:10.1101/2021.12.31.474672.
These are yes or no findings as the source states them, for the method shown. Binding seen in cells or lysates may run through a third protein. Some results given as binding are weak or reduced against the parent protein; the word gives no strength.

Protein sequences, listed by entry. Tags and fused reporters are not part of them. Residues count along the entry.
UniProt P11021, residues 19-654: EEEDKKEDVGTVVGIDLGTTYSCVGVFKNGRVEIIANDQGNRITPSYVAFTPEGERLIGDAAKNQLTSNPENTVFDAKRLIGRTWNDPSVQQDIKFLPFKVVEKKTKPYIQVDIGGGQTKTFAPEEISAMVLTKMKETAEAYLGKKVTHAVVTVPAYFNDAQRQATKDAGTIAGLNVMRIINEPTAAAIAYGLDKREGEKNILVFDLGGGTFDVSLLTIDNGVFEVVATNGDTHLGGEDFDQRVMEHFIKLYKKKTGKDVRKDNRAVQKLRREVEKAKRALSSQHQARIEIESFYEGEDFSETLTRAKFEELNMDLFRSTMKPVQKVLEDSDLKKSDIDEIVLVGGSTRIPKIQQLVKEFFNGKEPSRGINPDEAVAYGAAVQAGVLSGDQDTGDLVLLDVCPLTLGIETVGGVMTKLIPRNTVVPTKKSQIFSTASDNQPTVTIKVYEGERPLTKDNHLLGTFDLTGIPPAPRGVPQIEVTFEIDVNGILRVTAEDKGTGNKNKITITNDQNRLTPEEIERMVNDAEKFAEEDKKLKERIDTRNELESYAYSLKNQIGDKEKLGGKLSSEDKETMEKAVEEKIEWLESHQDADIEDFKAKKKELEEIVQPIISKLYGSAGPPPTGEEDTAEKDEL

T1: Smc4 (UniProt Q12267)
T1 sequence: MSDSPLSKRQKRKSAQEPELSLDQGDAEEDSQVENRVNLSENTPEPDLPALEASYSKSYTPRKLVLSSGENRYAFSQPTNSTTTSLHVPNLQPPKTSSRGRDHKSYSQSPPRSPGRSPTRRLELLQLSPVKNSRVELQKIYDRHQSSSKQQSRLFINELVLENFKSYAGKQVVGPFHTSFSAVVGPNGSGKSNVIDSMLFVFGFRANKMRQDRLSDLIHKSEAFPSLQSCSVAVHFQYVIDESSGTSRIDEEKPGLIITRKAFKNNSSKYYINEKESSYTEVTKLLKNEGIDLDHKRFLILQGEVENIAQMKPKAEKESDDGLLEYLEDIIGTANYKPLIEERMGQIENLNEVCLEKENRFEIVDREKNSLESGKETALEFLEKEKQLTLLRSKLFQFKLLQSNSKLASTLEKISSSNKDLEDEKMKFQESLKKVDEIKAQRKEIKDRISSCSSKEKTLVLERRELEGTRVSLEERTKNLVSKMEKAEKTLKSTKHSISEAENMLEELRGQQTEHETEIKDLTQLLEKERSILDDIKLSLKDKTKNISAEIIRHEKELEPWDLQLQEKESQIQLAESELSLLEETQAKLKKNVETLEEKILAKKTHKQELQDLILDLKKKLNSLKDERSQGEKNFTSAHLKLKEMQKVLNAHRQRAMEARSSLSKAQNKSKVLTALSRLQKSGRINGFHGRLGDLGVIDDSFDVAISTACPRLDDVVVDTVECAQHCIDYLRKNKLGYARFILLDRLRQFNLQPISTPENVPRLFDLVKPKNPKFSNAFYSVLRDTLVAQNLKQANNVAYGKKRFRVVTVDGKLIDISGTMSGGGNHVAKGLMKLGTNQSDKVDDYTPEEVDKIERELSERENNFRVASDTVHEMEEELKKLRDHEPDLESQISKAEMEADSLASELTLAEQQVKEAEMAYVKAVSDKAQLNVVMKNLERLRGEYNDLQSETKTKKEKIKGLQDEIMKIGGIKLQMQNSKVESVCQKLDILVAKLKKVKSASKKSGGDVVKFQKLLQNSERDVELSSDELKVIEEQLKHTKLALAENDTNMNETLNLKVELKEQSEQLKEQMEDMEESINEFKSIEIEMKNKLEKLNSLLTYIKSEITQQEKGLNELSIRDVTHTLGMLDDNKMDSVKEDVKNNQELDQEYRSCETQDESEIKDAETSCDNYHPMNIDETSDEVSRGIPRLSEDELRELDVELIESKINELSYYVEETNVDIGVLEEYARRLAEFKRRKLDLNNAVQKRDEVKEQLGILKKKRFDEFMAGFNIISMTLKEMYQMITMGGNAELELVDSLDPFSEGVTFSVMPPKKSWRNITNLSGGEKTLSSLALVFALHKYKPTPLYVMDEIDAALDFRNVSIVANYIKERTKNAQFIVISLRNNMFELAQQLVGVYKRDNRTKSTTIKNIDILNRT

B1: Smc2 (protein, UniProt P38989 1-1170)
chain: MKVEELIIDGFKSYATRTVITDWDPQFNAITGLNGSGKSNILDAICFVLGIASMSTVRASSLQDLIYKRGQAGVTKASVTIVFDNTDKSNSPIGFTNSPQISVTRQVVLGGTSKYLINGHRAPQQSVLQLFQSVQLNINNPNFLIMQGKITKVLNMKPSEILSLIEEAAGTKMFEDRREKAERTMSKKETKLQENRTLLTEEIEPKLEKLRNEKRMFLEFQSTQTDLEKTERIVVSYEYYNIKHKHTSIRETLENGETRMKMLNEFVKKTSEEIDSLNEDVEEIKLQKEKELHKEGTISKLENKENGLLNEISRLKTSLSIKVENLNDTTEKSKALESEIASSSAKLIEKKSAYANTEKDYKMVQEQLSKQRDLYKRKEELVSTLTTGISSTGAADGGYNAQLAKAKTELNEVSLAIKKSSMKMELLKKELLTIEPKLKEATKDNELNVKHVKQCQETCDKLRARLVEYGFDPSRIKDLKQREDKLKSHYYQTCKNSEYLKRRVTNLEFNYTKPYPNFEASFVHGVVGQLFQIDNDNIRYATALQTCAGGRLFNVVVQDSQTATQLLERGRLRKRVTIIPLDKIYTRPISSQVLDLAKKIAPGKVELAINLIRFDESITKAMEFIFGNSLICEDPETAKKITFHPKIRARSITLQGDVYDPEGTLSGGSRNTSESLLVDIQKYNQIQKQIETIQADLNHVTEELQTQYATSQKTKTIQSDLNLSLHKLDLAKRNLDANPSSQIIARNEEILRDIGECENEIKTKQMSLKKCQEEVSTIEKDMKEYDSDKGSKLNELKKELKLLAKELEEQESESERKYDLFQNLELETEQLSSELDSNKTLLHNHLKSIESLKLENSDLEGKIRGVEDDLVTVQTELNEEKKRLMDIDDELNELETLIKKKQDEKKSSELELQKLVHDLNKYKSNTNNMEKIIEDLRQKHEFLEDFDLVRNIVKQNEGIDLDTYRERSKQLNEKFQELRKKVNPNIMNMIENVEKKEAALKTMIKTIEKDKMKIQETISKLNEYKRETLVKTWEKVTLDFGNIFADLLPNSFAKLVPCEGKDVTQGLEVKVKLGNIWKESLIELSGGQRSLIALSLIMALLQFRPAPMYILDEVDAALDLSHTQNIGHLIKTRFKGSQFIVVSLKEGMFANANRVFRTRFQDGTSVVSIM
B2: SMG5 (protein, UniProt Q9UPR3 1-1016)
chain: MSQGPPTGESSEPEAKVLHTKRLYRAVVEAVHRLDLILCNKTAYQEVFKPENISLRNKLRELCVKLMFLHPVDYGRKAEELLWRKVYYEVIQLIKTNKKHIHSRSTLECAYRTHLVAGIGFYQHLLLYIQSHYQLELQCCIDWTHVTDPLIGCKKPVSASGKEMDWAQMACHRCLVYLGDLSRYQNELAGVDTELLAERFYYQALSVAPQIGMPFNQLGTLAGSKYYNVEAMYCYLRCIQSEVSFEGAYGNLKRLYDKAAKMYHQLKKCETRKLSPGKKRCKDIKRLLVNFMYLQSLLQPKSSSVDSELTSLCQSVLEDFNLCLFYLPSSPNLSLASEDEEEYESGYAFLPDLLIFQMVIICLMCVHSLERAGSKQYSAAIAFTLALFSHLVNHVNIRLQAELEEGENPVPAFQSDGTDEPESKEPVEKEEEPDPEPPPVTPQVGEGRKSRKFSRLSCLRRRRHPPKVGDDSDLSEGFESDSSHDSARASEGSDSGSDKSLEGGGTAFDAETDSEMNSQESRSDLEDMEEEEGTRSPTLEPPRGRSEAPDSLNGPLGPSEASIASNLQAMSTQMFQTKRCFRLAPTFSNLLLQPTTNPHTSASHRPCVNGDVDKPSEPASEEGSESEGSESSGRSCRNERSIQEKLQVLMAEGLLPAVKVFLDWLRTNPDLIIVCAQSSQSLWNRLSVLLNLLPAAGELQESGLALCPEVQDLLEGCELPDLPSSLLLPEDMALRNLPPLRAAHRRFNFDTDRPLLSTLEESVVRICCIRSFGHFIARLQGSILQFNPEVGIFVSIAQSEQESLLQQAQAQFRMAQEEARRNRLMRDMAQLRLQLEVSQLEGSLQQPKAQSAMSPYLVPDTQALCHHLPVIRQLATSGRFIVIIPRTVIDGLDLLKKEHPGARDGIRYLEAEFKKGNRYIRCQKEVGKSFERHKLKRQDADAWTLYKILDSCKQLTLAQGAGEEDPSGMVTIITGLPLDNPSVLSGPMQAALQAAAHASVDIKNVLDFYKQWKEIG
B3: CAMSAP2 (protein, UniProt Q08AD1 1-1489)
chain: MGDAADPREMRKTFIVPAIKPFDHYDFSRAKIACNLAWLVAKAFGTENVPEELQEPFYTDQYDQEHIKPPVVNLLLSAELYCRAGSLILKSDAAKPLLGHDAVIQALAQKGLYVTDQEKLVTERDLHKKPIQMSAHLAMIDTLMMAYTVEMVSIEKVIACAQQYSAFFQATDLPYDIEDAVMYWINKVNEHLKDIMEQEQKLKEHHTVEAPGGQKSPSKWFWKLVPARYRKEQTLLKQLPCIPLVENLLKDGTDGCALAALIHFYCPDVVRLEDICLKETMSLADSLYNLQLIQEFCQEYLNQCCHFTLEDMLYAASSIKSNYLVFMAELFWWFEVVKPSFVQPRVVRPQGAEPVKDMPSIPVLNAAKRNVLDSSSDFPSSGEGATFTQSHHHLPSRYSRPQAHSSASGGIRRSSSMSYVDGFIGTWPKEKRSSVHGVSFDISFDKEDSVQRSTPNRGITRSISNEGLTLNNSHVSKHIRKNLSFKPINGEEEAESIEEELNIDSHSDLKSCVPLNTNELNSNENIHYKLPNGALQNRILLDEFGNQIETPSIEEALQIIHDTEKSPHTPQPDQIANGFFLHSQEMSILNSNIKLNQSSPDNVTDTKGALSPITDNTEVDTGIHVPSEDIPETMDEDSSLRDYTVSLDSDMDDASKFLQDYDIRTGNTREALSPCPSTVSTKSQPGSSASSSSGVKMTSFAEQKFRKLNHTDGKSSGSSSQKTTPEGSELNIPHVVAWAQIPEETGLPQGRDTTQLLASEMVHLRMKLEEKRRAIEAQKKKMEAAFTKQRQKMGRTAFLTVVKKKGDGISPLREEAAGAEDEKVYTDRAKEKESQKTDGQRSKSLADIKESMENPQAKWLKSPTTPIDPEKQWNLASPSEETLNEGEILEYTKSIEKLNSSLHFLQQEMQRLSLQQEMLMQMREQQSWVISPPQPSPQKQIRDFKPSKQAGLSSAIAPFSSDSPRPTHPSPQSSNRKSASFSVKSQRTPRPNELKITPLNRTLTPPRSVDSLPRLRRFSPSQVPIQTRSFVCFGDDGEPQLKESKPKEEVKKEELESKGTLEQRGHNPEEKEIKPFESTVSEVLSLPVTETVCLTPNEDQLNQPTEPPPKPVFPPTAPKNVNLIEVSLSDLKPPEKADVPVEKYDGESDKEQFDDDQKVCCGFFFKDDQKAENDMAMKRAALLEKRLRREKETQLRKQQLEAEMEHKKEETRRKTEEERQKKEDERARREFIRQEYMRRKQLKLMEDMDTVIKPRPQVVKQKKQRPKSIHRDHIESPKTPIKGPPVSSLSLASLNTGDNESVHSGKRTPRSESVEGFLSPSRCGSRNGEKDWENASTTSSVASGTEYTGPKLYKEPSAKSNKHIIQNALAHCCLAGKVNEGQKKKILEEMEKSDANNFLILFRDSGCQFRSLYTYCPETEEINKLTGIGPKSITKKMIEGLYKYNSDRKQFSHIPAKTLSASVDAITIHSHLWQTKRPVTPKKLLPTKA
B4: MAGEB18 (protein, UniProt Q96M61 1-343)
chain: MPRGQKSKLRAREKRHQARCENQDLGATQATVAEGESPSPAYLLFGDRPQNLPAAETPSIPEALQGAPSTTNAIAPVSCSSNEGASSQDEKSLGSSREAEGWKEDPLNKKVVSLVHFLLQKYETKEPITKGDMIKFVIRKDKCHFNEILKRASEHMELALGVDLKEVDPIRHYYAFFSKLDLTYDETTSDEEKIPKTGLLMIALGVIFLNGNRAPEEAVWEIMNMMGVYADRKHFLYGDPRKVMTKDLVQLKYLEYQQVPNSDPPRYEFLWGPRAHAETSKMKVLEFVAKIHDTVPSAFPSCYEEALRDEEQRTQARAAARAHTAAMANARSRTTSSSFSHAK
B5: MDH2 (protein, UniProt P40926 25-338)
chain: AKVAVLGASGGIGQPLSLLLKNSPLVSRLTLYDIAHTPGVAADLSHIETKAAVKGYLGPEQLPDCLKGCDVVVIPAGVPRKPGMTRDDLFNTNATIVATLTAACAQHCPEAMICVIANPVNSTIPITAEVFKKHGVYNPNKIFGVTTLDIVRANTFVAELKGLDPARVNVPVIGGHAGKTIIPLISQCTPKVDFPQDQLTALTGRIQEAGTEVVKAKAGAGSATLSMAYAGARFVFSLVDAMNGKEGVVECSFVKSQETECTYFSTPLLLGKKGIEKNLGIGKVSSFEEKMISDAIPELKASIKKGEDFVKTLK
B6: FAM92A1 (protein, UniProt A1XBS5 48-289)
chain: ADLLVNEINAYAATETPHLKLGLMNFADEFAKLQDYRQAEVERLEAKVVEPLKTYGTIVKMKRDDLKATLTARNREAKQLTQLERTRQRNPSDRHVISQAETELQRAAMDASRTSRHLEETINNFERQKMKDIKTIFSEFITIEMLFHGKALEVYTAAYQNIQNIDEDEDLEVFRNSLYAPDYSSRLDIVRANSKSPLQRSLSAKCVSGTGQVSTCRLRKDQQAEDDEDDELDVTEEENFLK

biological target: T1, Smc4; test: cross-linking

binding, binds:
B1

biological target: HSPA5 encoded protein P11021 (human (endogenous in HeLa)) (UniProt P11021); test: cross-linking

binding, binds:
B2, B3, B4, B5, B6
